Measured values: the supplement of paper PMC12823440, “Inhibitors supercharge kinase turnover through native proteolytic circuits” (Nature, 2025)
Structures can show the parent of a compound that is named as a salt. The list shows a part of the results. Hit calls seldom repeat between salt and free forms of one compound.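 In K562 cells expressing nanoluciferase-fused kinases, luminescence was recorded at 4 h intervals between 2 and 18 h, normalized as percent of control with DMSO at 100% and a positive control at 0%. A significant (2 sigma) signal drop marks a time point as decreased. The authors' rule for a hit is not shown and takes in more than the number of time points.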

Amino acid sequences for entries named in this document (tags omitted). A change or cut given only in a name is not applied to a line headed by its entry.
UniProt P07949, whole entry, looked up: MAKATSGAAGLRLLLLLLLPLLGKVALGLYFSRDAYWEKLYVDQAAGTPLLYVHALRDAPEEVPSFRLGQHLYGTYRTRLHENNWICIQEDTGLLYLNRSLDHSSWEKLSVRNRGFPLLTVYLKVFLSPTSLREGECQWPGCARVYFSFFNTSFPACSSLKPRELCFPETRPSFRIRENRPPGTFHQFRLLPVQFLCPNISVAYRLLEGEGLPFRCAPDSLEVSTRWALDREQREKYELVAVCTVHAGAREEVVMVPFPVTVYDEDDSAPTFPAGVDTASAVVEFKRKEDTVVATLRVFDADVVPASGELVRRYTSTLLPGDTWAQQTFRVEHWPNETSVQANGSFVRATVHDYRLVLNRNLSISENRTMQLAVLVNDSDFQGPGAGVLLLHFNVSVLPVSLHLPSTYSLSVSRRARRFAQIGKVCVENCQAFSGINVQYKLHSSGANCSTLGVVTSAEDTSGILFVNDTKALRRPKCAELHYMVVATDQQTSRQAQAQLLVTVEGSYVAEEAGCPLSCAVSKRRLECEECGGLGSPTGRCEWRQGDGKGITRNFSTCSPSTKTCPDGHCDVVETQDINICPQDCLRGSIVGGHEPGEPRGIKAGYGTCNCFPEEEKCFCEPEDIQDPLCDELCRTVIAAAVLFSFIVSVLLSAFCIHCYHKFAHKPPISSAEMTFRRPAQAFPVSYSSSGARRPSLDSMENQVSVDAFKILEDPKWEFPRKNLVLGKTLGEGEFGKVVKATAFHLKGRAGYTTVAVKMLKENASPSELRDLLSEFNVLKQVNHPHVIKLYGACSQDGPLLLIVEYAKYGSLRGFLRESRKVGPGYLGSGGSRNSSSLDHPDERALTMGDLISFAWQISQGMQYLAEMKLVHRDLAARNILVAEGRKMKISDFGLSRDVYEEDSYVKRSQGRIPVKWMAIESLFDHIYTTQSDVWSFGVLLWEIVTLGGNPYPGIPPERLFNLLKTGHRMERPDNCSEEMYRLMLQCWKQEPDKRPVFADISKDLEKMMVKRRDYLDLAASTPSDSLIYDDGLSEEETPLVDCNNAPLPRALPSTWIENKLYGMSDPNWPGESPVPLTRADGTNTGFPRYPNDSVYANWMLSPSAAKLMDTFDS
UniProt P07949, whole entry M918T, looked up: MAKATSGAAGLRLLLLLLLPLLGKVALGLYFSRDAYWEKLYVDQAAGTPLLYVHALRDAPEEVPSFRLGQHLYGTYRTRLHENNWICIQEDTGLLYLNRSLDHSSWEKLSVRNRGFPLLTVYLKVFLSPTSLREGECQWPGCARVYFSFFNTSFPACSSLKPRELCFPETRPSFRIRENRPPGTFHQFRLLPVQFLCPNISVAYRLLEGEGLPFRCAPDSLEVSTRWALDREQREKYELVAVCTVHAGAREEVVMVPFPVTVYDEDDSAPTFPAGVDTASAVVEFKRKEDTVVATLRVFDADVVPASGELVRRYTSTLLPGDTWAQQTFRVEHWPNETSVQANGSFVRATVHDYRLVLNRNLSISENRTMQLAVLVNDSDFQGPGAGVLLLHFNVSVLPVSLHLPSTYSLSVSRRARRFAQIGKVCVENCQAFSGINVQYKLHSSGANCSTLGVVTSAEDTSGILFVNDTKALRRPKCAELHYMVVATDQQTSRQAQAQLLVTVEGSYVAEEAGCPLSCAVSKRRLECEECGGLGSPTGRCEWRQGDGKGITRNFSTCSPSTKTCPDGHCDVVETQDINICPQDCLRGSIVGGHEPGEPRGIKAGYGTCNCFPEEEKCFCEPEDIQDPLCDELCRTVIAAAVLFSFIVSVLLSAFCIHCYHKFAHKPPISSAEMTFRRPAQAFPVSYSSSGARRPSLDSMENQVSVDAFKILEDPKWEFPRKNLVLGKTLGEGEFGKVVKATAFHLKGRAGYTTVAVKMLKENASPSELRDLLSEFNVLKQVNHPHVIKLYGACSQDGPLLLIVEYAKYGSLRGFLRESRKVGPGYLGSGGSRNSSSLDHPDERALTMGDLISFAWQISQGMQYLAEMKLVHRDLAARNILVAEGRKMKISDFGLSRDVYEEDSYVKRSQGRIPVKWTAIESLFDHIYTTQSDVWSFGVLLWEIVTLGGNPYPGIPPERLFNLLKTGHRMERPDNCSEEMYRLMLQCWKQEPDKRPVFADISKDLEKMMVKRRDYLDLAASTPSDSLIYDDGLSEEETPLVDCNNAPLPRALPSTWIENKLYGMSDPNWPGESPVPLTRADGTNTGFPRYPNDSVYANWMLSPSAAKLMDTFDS
UniProt Q9BRS2: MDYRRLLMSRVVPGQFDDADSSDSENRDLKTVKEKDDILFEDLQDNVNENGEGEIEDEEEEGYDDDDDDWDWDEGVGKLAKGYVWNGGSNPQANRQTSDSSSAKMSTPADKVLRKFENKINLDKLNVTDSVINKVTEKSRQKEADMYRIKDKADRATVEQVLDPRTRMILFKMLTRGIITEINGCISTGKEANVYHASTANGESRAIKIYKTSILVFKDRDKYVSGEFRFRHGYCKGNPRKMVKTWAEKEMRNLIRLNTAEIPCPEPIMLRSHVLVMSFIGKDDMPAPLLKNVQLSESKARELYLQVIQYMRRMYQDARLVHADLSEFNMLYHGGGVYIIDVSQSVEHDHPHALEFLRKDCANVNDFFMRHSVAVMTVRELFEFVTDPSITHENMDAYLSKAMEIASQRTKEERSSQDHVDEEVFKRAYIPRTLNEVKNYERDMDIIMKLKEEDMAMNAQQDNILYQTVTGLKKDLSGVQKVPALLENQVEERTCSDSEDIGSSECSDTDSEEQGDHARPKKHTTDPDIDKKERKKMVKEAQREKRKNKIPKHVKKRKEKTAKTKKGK
UniProt Q13546: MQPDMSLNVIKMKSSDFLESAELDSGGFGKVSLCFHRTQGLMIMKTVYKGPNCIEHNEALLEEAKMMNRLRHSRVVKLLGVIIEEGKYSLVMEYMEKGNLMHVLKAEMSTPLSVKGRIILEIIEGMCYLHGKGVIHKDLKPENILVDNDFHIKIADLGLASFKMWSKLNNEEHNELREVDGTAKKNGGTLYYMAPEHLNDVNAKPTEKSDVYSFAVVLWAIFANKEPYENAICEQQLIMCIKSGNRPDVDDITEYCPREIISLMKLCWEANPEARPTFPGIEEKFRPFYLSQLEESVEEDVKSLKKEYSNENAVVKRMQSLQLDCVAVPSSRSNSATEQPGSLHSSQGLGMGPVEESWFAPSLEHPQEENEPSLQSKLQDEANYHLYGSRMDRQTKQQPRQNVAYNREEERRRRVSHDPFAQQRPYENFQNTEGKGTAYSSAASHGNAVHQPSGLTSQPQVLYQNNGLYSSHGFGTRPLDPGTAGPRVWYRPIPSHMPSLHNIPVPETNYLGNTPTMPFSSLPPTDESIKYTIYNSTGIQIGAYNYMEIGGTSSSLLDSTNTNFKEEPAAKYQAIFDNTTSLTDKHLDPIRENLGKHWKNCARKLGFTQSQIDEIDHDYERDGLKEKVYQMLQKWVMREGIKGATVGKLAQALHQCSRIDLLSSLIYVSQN
UniProt Q01974, whole entry: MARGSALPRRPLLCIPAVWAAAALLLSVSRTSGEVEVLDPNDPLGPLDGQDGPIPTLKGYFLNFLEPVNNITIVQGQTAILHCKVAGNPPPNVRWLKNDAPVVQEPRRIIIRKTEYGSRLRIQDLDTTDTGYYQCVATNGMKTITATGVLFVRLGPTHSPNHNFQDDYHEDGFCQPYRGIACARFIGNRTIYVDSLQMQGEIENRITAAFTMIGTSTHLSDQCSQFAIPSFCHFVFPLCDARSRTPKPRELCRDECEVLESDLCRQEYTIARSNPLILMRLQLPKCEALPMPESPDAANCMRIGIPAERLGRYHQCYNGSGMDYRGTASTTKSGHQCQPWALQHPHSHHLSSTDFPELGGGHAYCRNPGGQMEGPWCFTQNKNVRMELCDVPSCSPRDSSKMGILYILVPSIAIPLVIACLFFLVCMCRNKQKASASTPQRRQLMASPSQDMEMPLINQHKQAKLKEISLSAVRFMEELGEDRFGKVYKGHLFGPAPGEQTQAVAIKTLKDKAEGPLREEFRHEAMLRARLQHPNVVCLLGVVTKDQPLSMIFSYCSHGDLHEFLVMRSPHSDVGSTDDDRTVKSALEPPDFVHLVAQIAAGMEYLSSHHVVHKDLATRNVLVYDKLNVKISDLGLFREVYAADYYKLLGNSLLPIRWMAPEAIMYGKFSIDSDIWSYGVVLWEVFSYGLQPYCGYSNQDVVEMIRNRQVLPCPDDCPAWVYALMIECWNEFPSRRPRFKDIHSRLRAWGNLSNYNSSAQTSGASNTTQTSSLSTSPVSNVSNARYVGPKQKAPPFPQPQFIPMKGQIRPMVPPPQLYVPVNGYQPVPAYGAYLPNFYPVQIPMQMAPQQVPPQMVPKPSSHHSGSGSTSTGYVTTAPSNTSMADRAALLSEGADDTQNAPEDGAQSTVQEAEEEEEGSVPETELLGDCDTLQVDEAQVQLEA
UniProt Q15418, whole entry: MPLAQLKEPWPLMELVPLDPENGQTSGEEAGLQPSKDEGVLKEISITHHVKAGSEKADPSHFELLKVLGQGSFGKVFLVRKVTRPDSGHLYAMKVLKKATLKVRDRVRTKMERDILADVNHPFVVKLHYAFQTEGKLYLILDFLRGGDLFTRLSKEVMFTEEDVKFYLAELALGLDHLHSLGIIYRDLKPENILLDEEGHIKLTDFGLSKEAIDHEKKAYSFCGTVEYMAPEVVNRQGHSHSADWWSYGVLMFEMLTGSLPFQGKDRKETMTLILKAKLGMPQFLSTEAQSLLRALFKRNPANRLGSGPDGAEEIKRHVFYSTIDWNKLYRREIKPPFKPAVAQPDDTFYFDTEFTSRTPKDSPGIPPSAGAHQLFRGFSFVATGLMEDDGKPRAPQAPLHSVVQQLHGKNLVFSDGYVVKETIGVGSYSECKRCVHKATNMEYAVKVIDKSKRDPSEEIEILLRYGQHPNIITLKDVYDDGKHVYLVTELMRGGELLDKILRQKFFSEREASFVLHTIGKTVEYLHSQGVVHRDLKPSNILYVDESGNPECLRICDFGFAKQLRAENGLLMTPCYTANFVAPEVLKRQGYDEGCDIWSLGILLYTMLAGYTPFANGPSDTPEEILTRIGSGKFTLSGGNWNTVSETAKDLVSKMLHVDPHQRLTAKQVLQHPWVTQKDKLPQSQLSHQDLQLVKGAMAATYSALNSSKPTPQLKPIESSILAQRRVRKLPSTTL
UniProt Q9NYA1, whole entry: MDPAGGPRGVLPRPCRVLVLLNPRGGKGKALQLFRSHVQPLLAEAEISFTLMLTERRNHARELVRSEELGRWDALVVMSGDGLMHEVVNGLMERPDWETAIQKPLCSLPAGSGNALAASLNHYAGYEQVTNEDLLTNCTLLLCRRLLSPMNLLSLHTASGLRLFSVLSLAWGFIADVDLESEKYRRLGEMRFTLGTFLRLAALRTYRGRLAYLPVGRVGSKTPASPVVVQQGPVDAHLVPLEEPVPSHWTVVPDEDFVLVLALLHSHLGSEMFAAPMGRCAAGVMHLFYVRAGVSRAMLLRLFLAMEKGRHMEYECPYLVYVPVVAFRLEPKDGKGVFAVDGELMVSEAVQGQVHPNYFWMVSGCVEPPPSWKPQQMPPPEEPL
UniProt Q15208: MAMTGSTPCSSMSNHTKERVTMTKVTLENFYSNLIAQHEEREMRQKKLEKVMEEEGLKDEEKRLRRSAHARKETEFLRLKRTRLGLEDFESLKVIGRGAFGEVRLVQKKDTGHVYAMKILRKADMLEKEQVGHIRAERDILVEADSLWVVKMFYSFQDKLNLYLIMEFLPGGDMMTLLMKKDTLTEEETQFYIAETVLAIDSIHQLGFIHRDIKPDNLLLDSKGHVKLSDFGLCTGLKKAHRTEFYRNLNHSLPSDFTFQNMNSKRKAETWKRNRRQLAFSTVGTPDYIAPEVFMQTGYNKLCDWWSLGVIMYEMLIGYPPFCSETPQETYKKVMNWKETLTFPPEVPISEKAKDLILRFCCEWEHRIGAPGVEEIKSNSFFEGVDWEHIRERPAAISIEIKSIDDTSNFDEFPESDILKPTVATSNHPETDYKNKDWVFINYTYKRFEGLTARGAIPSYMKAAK
UniProt Q6PHR2: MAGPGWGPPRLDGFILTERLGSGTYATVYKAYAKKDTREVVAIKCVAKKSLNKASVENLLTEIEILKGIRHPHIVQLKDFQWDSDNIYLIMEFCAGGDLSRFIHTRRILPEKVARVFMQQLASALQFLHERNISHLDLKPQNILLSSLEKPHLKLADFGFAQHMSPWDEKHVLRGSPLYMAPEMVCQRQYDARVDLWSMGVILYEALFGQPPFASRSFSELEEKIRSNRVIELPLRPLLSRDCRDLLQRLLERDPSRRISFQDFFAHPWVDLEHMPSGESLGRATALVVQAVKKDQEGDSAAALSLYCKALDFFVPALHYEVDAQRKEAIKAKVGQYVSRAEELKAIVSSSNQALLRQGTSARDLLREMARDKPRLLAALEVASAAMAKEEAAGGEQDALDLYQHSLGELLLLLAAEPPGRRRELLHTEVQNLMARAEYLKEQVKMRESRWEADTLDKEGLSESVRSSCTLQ

What was measured:
Assay in all cases: number of time points (of 5) at which kinase-Nluc abundance scored as decreased, DMSO-normalised (count); higher = more persistent destabilization
Conditions in all cases: K562; 2-18 h
[1] = target: PRKCA (UniProt P17252)
[2] = target: PTK2 (UniProt Q05397)
[3] = target: PTK2B (UniProt Q14289)
[4] = target: RAF1 (UniProt P04049)
[5] = target: RAF1_S257L (clone: RAF1_mut) (UniProt P04049)
[6] = target: RET (UniProt P07949)
[7] = target: RET_M918T (clone: RET_mut) (UniProt P07949)
[8] = target: RIOK1 (UniProt Q9BRS2)
[9] = target: RIPK1 (UniProt Q13546)
[10] = target: RIPK2 (UniProt O43353)
[11] = target: ROR2 (UniProt Q01974)
[12] = target: RPS6KA1 (UniProt Q15418)
[13] = target: SPHK1 (UniProt Q9NYA1)
[14] = target: SRC (UniProt P12931)
[15] = target: STK24 (UniProt Q9Y6E0)
[16] = target: STK38 (UniProt Q15208)
[17] = target: SYK (UniProt P43405)
[18] = target: TEC (UniProt P42680)
[19] = target: TYK2 (UniProt P29597)
[20] = target: ULK3 (UniProt Q6PHR2)

Row | Structure (SMILES) | number of time points [1] | number of time points [2] | number of time points [3] | number of time points [4] | number of time points [5] | number of time points [6] | number of time points [7] | number of time points [8] | number of time points [9] | number of time points [10] | number of time points [11] | number of time points [12] | number of time points [13] | number of time points [14] | number of time points [15] | number of time points [16] | number of time points [17] | number of time points [18] | number of time points [19] | number of time points [20]
1 | COc1ccc(-c2coc3cc(O)ccc3c2=O)cc1 [Formononetin] (10 µM) | 0 | 0 | 0 | 0 | 1 | 0 | 0 | 0 | 0 | 0 | 0 | 0 | 0 | 0 | 0 | 0 | 0 | 0 | 0 | 0
2 | C[C@@H]1CC(=O)c2c(ccc3c2C(=O)c2cccc(O)c2C3=O)C1 [Ochromycinone] (10 µM) | 0 | 0 | 0 | 0 | 0 | 0 | 0 | 0 | 0 | 0 | 0 | 0 | 0 | 0 | 0 | 0 | 0 | 0 | 0 | 0
3 | C=CC(=O)N1CCC[C@H](n2c(=O)n(-c3ccc(Oc4ccccc4)cc3)c3c(N)ncnc32)C1 [ONO-4059 (analog)] (10 µM) | 0 | 0 | 0 | 0 | 0 | 0 | 0 | 0 | 0 | 0 | 0 | 0 | 0 | 0 | 0 | 0 | 0 | 0 | 0 | 0
4 | Cc1cccc(-c2[nH]c(C(C)(C)C)nc2-c2ccc3nccnc3c2)n1 (10 µM) | 0 | 0 | 0 | 0 | 0 | 0 | 0 | 0 | 0 | 0 | 0 | 0 | 0 | 0 | 0 | 0 | 0 | 0 | 0 | 0
5 | CC(=O)c1c(C)c2cnc(Nc3ccc(N4CCN(C(=O)CNc5cccc6c5C(=O)N(C5CCC(=O)NC5=O)C6=O)CC4)cn3)nc2n(C2CCCC2)c1=O (stereo not given) (10 µM) | 0 | 0 | 0 | 0 | 0 | 0 | 0 | 0 | 0 | 0 | 0 | 0 | 0 | 0 | 0 | 0 | 0 | 0 | 0 | 0
6 | Cn1cc(-c2cnc3cnn(S(=O)(=O)c4cnc5ccc(-c6cnn(C)c6)cn45)c3c2)cn1 [Glumetinib] (10 µM) | 0 | 0 | 0 | 0 | 0 | 0 | 0 | 0 | 0 | 0 | 0 | 0 | 0 | 0 | 0 | 0 | 0 | 0 | 0 | 0
7 | Cn1ncc2cc(-c3cnc(N)c(Cl)c3N3CCC4(CCNC4=O)CC3)ccc21 (10 µM) | 0 | 0 | 0 | 0 | 0 | 0 | 0 | 0 | 0 | 0 | 0 | 0 | 0 | 0 | 0 | 0 | 0 | 0 | 0 | 0
8 | NC(=O)N1CCC(CC(=O)N2CCC([C@H]3c4ncc(Br)cc4CCc4cc(Cl)cc(Br)c43)CC2)CC1 [Lonafarnib] (2.5 µM) | 0 | 0 | 0 | 0 | 0 | 0 | 0 | 0 | 0 | 0 | 0 | 0 | 0 | 0 | 0 | 0 | 0 | 0 | 0 | 0
9 | Nc1cccc(-c2cc3c(Oc4cccc(O)c4)ncnc3[nH]2)c1 (10 µM) | 0 | 1 | 0 | 2 | 3 | 1 | 1 | 1 | 2 | 3 | 0 | 0 | 0 | 0 | 0 | 1 | 0 | 2 | 3 | 2
10 | Cn1cnc([N+](=O)[O-])c1C[N+](C)(C)C/C=C/C(=O)Nc1cc2c(Nc3ccc(Cl)c(Br)c3)ncnc2cn1 [Tarloxotinib (bromide)] (10 µM) | 0 | 0 | 0 | 0 | 0 | 0 | 0 | 0 | 0 | 0 | 0 | 0 | 0 | 0 | 0 | 0 | 0 | 0 | 0 | 0
11 | c1ccc(-c2nc(=NCCN3CCOCC3)sn2-c2ccccc2)cc1 [VP3.15 (dihydrobromide)] (10 µM) | 0 | 0 | 0 | 0 | 0 | 0 | 0 | 0 | 0 | 0 | 0 | 0 | 0 | 0 | 0 | 0 | 0 | 0 | 0 | 0
12 | COc1cc2ncnc(Nc3ccccc3)c2cc1OC (10 µM) | 0 | 0 | 0 | 0 | 0 | 0 | 0 | 0 | 0 | 0 | 0 | 0 | 0 | 0 | 0 | 0 | 0 | 0 | 0 | 0
